Laboratory results from patent EP4714976A1.
Substitutions are numbered along the chain they refer to. These are yes or no findings as the source states them, for the method shown. Some entries that bind do so weakly or less than the wild type. Tags and fused reporters may be left off the sequences shown.

The chains behind the UniProt entries cited, without tags or fusion partners. Where a name states a change or a piece, a line headed by the entry shows the natural chain unless it says otherwise. A line that says so, or that is headed by a name, gives the form on record, which may keep a tag or linker.
human FGFR2b (Kaixia Biotechnology, catalog number FGR-HM1BB) (P21802, form named): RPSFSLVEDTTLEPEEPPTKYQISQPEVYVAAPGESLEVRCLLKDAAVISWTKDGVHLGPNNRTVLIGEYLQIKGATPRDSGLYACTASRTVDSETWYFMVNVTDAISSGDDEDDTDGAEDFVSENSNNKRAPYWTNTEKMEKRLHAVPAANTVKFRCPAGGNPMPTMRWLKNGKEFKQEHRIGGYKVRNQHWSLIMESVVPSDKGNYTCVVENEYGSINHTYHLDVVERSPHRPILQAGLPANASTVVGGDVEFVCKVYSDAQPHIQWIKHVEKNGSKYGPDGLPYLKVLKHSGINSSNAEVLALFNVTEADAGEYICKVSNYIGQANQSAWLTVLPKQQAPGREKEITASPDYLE

B1: 3D7 scFv-Fc (Fc fusion)
chain: QVQLQQSGAELVKPGASVKMSCKASGYTFSFYNMHWVKRTPGRGLEWIGLIYPDNGDTSYNQKFKGKATLTADTSSSTAYMQLSSLTSEDSAVYYCARGGLDYWGQGTSLTVSSGGGGSGGGGSGGGGSEIVLTQSPASLAVSLGQRATISCKASQSVDYDGDSYMNWYQQKPGQPPKLLIYGISNRFSGVPDRFSGSGSGTDFTLKISTIKPEDLGMYYCLQGTHQPYTFGGGTKLEIKESKYGPPCPPCPAPEAAGGPSVFLFPPKPKDTLMISRTPEVTCVVVDVSQEDPEVQFNWYVDGVEVHNAKTKPREEQFNSTYRVVSVLTVLHQDWLNGKEYKCKVSNKGLPSSIEKTISKAKGQPREPQVYTLPPSQEEMTKNQVSLTCLVKGFYPSDIAVEWESNGQPENNYKTTPPVLDSDGSFFLYSKLTVDKSRWQEGNVFSCSVMHEALHNHYTQKSLSLSLG
B2: 3F11 scFv-Fc (Fc fusion)
chain: QVQLQQSGAELVKPGASVKMSCKASGYTFAPYNIHWVRQTPGQGLEWIGLIYPDNGDTSYNQKFKAKATLTADKSSSTAYMQLSSLTSEDSAVYYCARGGFDYWGQGTSLTVSSGGGGSGGGGSGGGGSDIVMTQSQKFMSTSVGDRVSVTCKASQNVGTNVAWYQQKPGQSPKALIYSASYRYSGVPDRFTGSGSGTDFTLTISNVQSEDLAEYFCQQHYSTPFTFGSGTKLEIKESKYGPPCPPCPAPEAAGGPSVFLFPPKPKDTLMISRTPEVTCVVVDVSQEDPEVQFNWYVDGVEVHNAKTKPREEQFNSTYRVVSVLTVLHQDWLNGKEYKCKVSNKGLPSSIEKTISKAKGQPREPQVYTLPPSQEEMTKNQVSLTCLVKGFYPSDIAVEWESNGQPENNYKTTPPVLDSDGSFFLYSKLTVDKSRWQEGNVFSCSVMHEALHNHYTQKSLSLSLG
B3: 1G6 scFv-Fc (Fc fusion)
chain: EIQLQQSGAELVKPGASVKMSCKASGYTFRYYNMHWVKRTPGQGLEWIGLIYPDNGDTSYNQKFKGKATLTADTSSSTAYMQLSSLTSEDSAVYYCARGGLDYWGQGTSLTVSSGGGGSGGGGSGGGGSNIVMTQSHKFMSTSVGDRVSITCKASQDVNTDVAWYQQKPGQSPKLLIYSASYRYTGVPTRFTGSGSGTDFTFTISGVQAEDLADYYCQQHYNTPYTFGGGTKLELKESKYGPPCPPCPAPEAAGGPSVFLFPPKPKDTLMISRTPEVTCVVVDVSQEDPEVQFNWYVDGVEVHNAKTKPREEQFNSTYRVVSVLTVLHQDWLNGKEYKCKVSNKGLPSSIEKTISKAKGQPREPQVYTLPPSQEEMTKNQVSLTCLVKGFYPSDIAVEWESNGQPENNYKTTPPVLDSDGSFFLYSKLTVDKSRWQEGNVFSCSVMHEALHNHYTQKSLSLSLG
B4: 1B8 scFv-Fc (Fc fusion)
chain: QIQLQQSGAELVKPGASVKMSCKASGYTFASYNLHWVKQTPGQGLEWIGLIYPENGDTSYNQKFKGKATLTADTSSTTAYIQLSSLTSEDSAVYFCARGGFDYWGQGTSLTVSSGGGGSGGGGSGGGGSDIKMTQSPASLSASVGETVTITCGASENIYGALNWYQRKQGKSPQLLIYGATNLADGMSSRFSGSGSGRQYSLKISSLHPDDVATYYCQNVLSTPYTFGGGTKLEIKESKYGPPCPPCPAPEAAGGPSVFLFPPKPKDTLMISRTPEVTCVVVDVSQEDPEVQFNWYVDGVEVHNAKTKPREEQFNSTYRVVSVLTVLHQDWLNGKEYKCKVSNKGLPSSIEKTISKAKGQPREPQVYTLPPSQEEMTKNQVSLTCLVKGFYPSDIAVEWESNGQPENNYKTTPPVLDSDGSFFLYSKLTVDKSRWQEGNVFSCSVMHEALHNHYTQKSLSLSLG
B5: 1D7 scFv-Fc (Fc fusion)
chain: QIQLQQSGAELVKPGASVKMSCKASGYTFRYYNMHWVKRTPGQGLEWIGLIYPDNGDTSYNQKFKGKATLTADTSSSTAYMQLSSLTSEDSAVYYCARGGLDYWGQGTSLTVSSGGGGSGGGGSGGGGSDIQMTQSPSSMSASLGDRITITCQATQDIVKNLNWYQQKPGKPPSFLIYYATELAEGVPSRFSGSGSGSDYSLTISNLESEDFADYYCLQFYEFPLTFGAGTKLELKESKYGPPCPPCPAPEAAGGPSVFLFPPKPKDTLMISRTPEVTCVVVDVSQEDPEVQFNWYVDGVEVHNAKTKPREEQFNSTYRVVSVLTVLHQDWLNGKEYKCKVSNKGLPSSIEKTISKAKGQPREPQVYTLPPSQEEMTKNQVSLTCLVKGFYPSDIAVEWESNGQPENNYKTTPPVLDSDGSFFLYSKLTVDKSRWQEGNVFSCSVMHEALHNHYTQKSLSLSLG
B6: 1C10 scFv-Fc (Fc fusion)
chain: QVQLQQSGAELVKPGASVKMSCKASGYTFRYYNMHWVKRTPGQGLEWIGLIYPDNGDTSYNQKFKGKATLTADTSSSTAYMQLSSLTSEDSAVYYCARGGLDYWGQGTSLTVSSGGGGSGGGGSGGGGSDIVMTQSPASLSASVGETVTITCRASGNIHNYLAWYQQKQGKSPQLLVYNAKTLADGVPSRFSGSGSGTQYSLKINSLQPEDFGSYYCQHFWSTPYTFGGGTKLEMKESKYGPPCPPCPAPEAAGGPSVFLFPPKPKDTLMISRTPEVTCVVVDVSQEDPEVQFNWYVDGVEVHNAKTKPREEQFNSTYRVVSVLTVLHQDWLNGKEYKCKVSNKGLPSSIEKTISKAKGQPREPQVYTLPPSQEEMTKNQVSLTCLVKGFYPSDIAVEWESNGQPENNYKTTPPVLDSDGSFFLYSKLTVDKSRWQEGNVFSCSVMHEALHNHYTQKSLSLSLG
B7: 1A3 scFv-Fc (Fc fusion)
chain: B4 chain with I2V, S7P, T74K, T77S, S109T, S114Q, K132Q
B8: 2B2 scFv-Fc (Fc fusion)
chain: QLQLQQSGAELVKPGASVKMSCKASGYTFASYNLHWVKQTPGQGLEWIGLIYPENGDTSYNQKFKDKATLTADKSSTTAYIQLSSLASEDSAVYFCARGGFDYWGQGTTLTVSSGGGGSGGGGSGGGGSDIVMTQSQKFMSTSVGDRVSVTCKASQNVGTNVAWYQQKPGQSPKALIYSASYRYSGVPDRFTGSGSGTDYTLTISSVQAEDLALYYCQQHYSTPYTFGGGTKLELKESKYGPPCPPCPAPEAAGGPSVFLFPPKPKDTLMISRTPEVTCVVVDVSQEDPEVQFNWYVDGVEVHNAKTKPREEQFNSTYRVVSVLTVLHQDWLNGKEYKCKVSNKGLPSSIEKTISKAKGQPREPQVYTLPPSQEEMTKNQVSLTCLVKGFYPSDIAVEWESNGQPENNYKTTPPVLDSDGSFFLYSKLTVDKSRWQEGNVFSCSVMHEALHNHYTQKSLSLSLG
B9: 3A3 scFv-Fc (Fc fusion)
chain: QVQLQQSGAELVKPGASVKMSCKASGYTFTTYNIHWVRQTPGQGLEWIGLIYPDNGDTSYNQKFKAKATLTADKSSSTAYMHLSSLTSEDSAVYYCARGGFDYWGQGTTLTVSSGGGGSGGGGSGGGGSDIVMTQSHKFMSTSVGDRVSITCKASQDVNTDVSWYQQKPGQSPKLLIYSASYRYTGVPTRFTGSGSGTDFTFTISGVQAEDLADYYCQQHYNTPYTFGGGTRLEIKESKYGPPCPPCPAPEAAGGPSVFLFPPKPKDTLMISRTPEVTCVVVDVSQEDPEVQFNWYVDGVEVHNAKTKPREEQFNSTYRVVSVLTVLHQDWLNGKEYKCKVSNKGLPSSIEKTISKAKGQPREPQVYTLPPSQEEMTKNQVSLTCLVKGFYPSDIAVEWESNGQPENNYKTTPPVLDSDGSFFLYSKLTVDKSRWQEGNVFSCSVMHEALHNHYTQKSLSLSLG

target: human FGFR2b (Kaixia Biotechnology, catalog number FGR-HM1BB) (human) (UniProt P21802); assay: ELISA, antibody 1ug/mL

binding, binds:
B1
B2
B3
B4
B5
B6
B7
B8
B9
